In doi:10.1101/2022.06.03.494746:
Results are given in words; binding and its absence hold for the method and conditions named. In cells and extracts the contact can be indirect. Here binding means that the protein was enriched with, or labelled near, the bait; the list need not be complete. A no says only that the protein was not detected with the bait.

Legend:
[1] = molecular target: DCP1-TurboID-6xHis-3xFLAG (Arabidopsis); assay: affinity purification with mass spectrometry
[2] = molecular target: DCP1-TurboID-6xHis-3xFLAG (Arabidopsis); assay: proximity labelling

| binding [1] | binding [2] | Binder |
| --- | --- | --- |
| binds | binds | DRP2A (protein, UniProt Q9SE83 1-914) MEAIDELSQLSDSMKQAASLLADEDPDETSSSKRPATFLNVVALGNVGAGKSAVLNSLIGHPVLPTGENGATRAPIIIELSRESSLSSKAIILQIDNKSQQVSASALRHSLQDRLSKGASGKNRDEINLKLRTSTAPPLKLVDLPGLDQRIVDESMIAEYAQHNDAILLVIVPASQASEISSSRALKIAKEYDPESTRTIGIIGKIDQAAENSKALAAVQALLSNQGPPKTTDIPWVAVIGQSVSIASAQSGSGENSLETAWRAESESLKSILTGAPQSKLGRIALVDTLASQIRSRMKLRLPSVLSGLQGKSQIVQDELARLGEQLVNSAEGTRAIALELCREFEDKFLLHLAGGEGSGWKVVASFEGNFPNRIKQLPLDRHFDLNNVKRVVLEADGYQPYLISPEKGLRSLIKIVLELAKDPARLCVDEVHRVLVDIVSASANATPGLGRYPPFKREVVAIASAALDGFKNEAKKMVVALVDMERAFVPPQHFIRLVQRRMERQRREEELKGRSSKKGQDAEQSLLSRATSPQPDGPTAGGSLKSMKDKPSPQDKETPEVSGLKTAGPEGEITAGYLMKKSAKTNGWSRRWFVLNEKTGKLGYTKKQEERNFRGTITLEECTIEEIPEDEVEKSKSSKDKKANGPDSKGPGLVFKITCKVPYKTVLKAHNALVLKAESVVDKNEWINKLQKVIQARGGQVGSVSMRQSLSEGSLDKMVRKPIDPEEELRWMSQEVRGYVEAVLNSLAANVPKAVVLCQVEKAKEDMLNQLYSSISAIGNERIESLIQEDQNVKRRRERYQKQSSLLSKLTRQLSIHDNRAAAASSYSDNSGTESSPRASGGSSGDDWMNAFNSAANGPSDSLSKYGSGGHSRRYSDPAQNGDAASPGSGSNRRTTPNRLPPAPPPTGSAYRY |
|  | binds | GRL/NAP125 (protein, UniProt Q5S2C4 1-1425) MANSRQYYPSQDESMSPTSVRSREWEGPSRWTEYLGPEMAASVSSTRSSKQIDGHVGGSTKALNIQWVVQMIEVADGLMAKMYRLNQILEYPDPVGHVFSEAFWKAGVFPNHPRICTLLSKKFPEHFSKLQLERIDKFSLDSLHDGAELHLQSLEPWIQLLLDLMAFREQALRLILDLSSTVITLLPHQNSLILHAFMDLFCAFVRVNLFAEKIPRKMLLQVYNLLHALSRNDRDCDFYHRLVQFIDSYDPPLKGLQEDLNFVSPRIGEVLEAVGPSIFLSADTRKLRNEGFLSPYHPRFPDILTNSAHPMRAQDLANVTSYREWVLLGYLVCPDELLRVTSIDIALVVLKENLVVTLFRDEVSLYQMVCEKEFGIGISFASADSINLTMQYILLHEDYQLYVLPRVLESKKMAKSGRTKQKEADLEYSVAKQVEKMISEVHEQALQLCDTIHRERRILLKQEIGRMVLFFTDQPSLLAPNIQMVFSALALAQSEVLWYFQHAGIASSRSKAARVIPVDIDPNDPTIGFLLDGMDRLCCLVRKYISAARGYALSYLSSSAGRIRYLMGTPGIVALDLDPTLKGLFQRIVQHLESIPKAQGENVSAITCDLSDFRKDWLSILMIVTSSRSSINIRHLEKATVSTGKEGLLSEGNAAYNWSRCVDELESQLSKHGSLKKLYFYHQHLTTVFRNTMFGPEGRPQHCCAWLSVASSFPECASLIIPEEVTKFGRDAVLYVESLIESIMGGLEGLINILDSEGGFGALESQLLPEQAAAYLNNASRISAPSVKSPRVVGGFTLPGHESYPENNKSIKMLEAAIQRLTNLCSILNDMEPICVINHVFVLREYMRECILGNFKRRFLTALQTDNDLQRPSVLESLIRRHMGIVHLAEQHVSMDLTQGIREILLTEAFSGPVSSLHTFEKPAEQQQTTGSAVEVVCNWYMDNIIKDVSGAGILFAPRHKYFKSTRPVGGYFAESVTDLKELQAFVRIFGGYGVDRLDRMMKVHTAALVNCIETSLRSNRELIEAAAASMHSGDRVERDASVRQIVDLDTVIGFCIEAGQALAFDDLLAEASGAVLEDNASLIHSMISGIVEHIPEEIPEKKEIRRIKGVANGVGVAGDHDSEWVRLILEEVGGANDNSWSLLPYFFASFMTSNAWNTTGFNIETGGFSNNIHCLARCISAVIAGSEYVRLQREYQQQHQSLSNGHHSSENLDSEFPPRVTAEASIKSSMLLFVKFAASIVLDSWSEANRSHLVAKLIFLDQLCEISPYLPRSSLESHVPYTILRSIYTQYYSNTPSTPLSTASPYHSPSVSLIHASPSMKNSTTPQRGSGSGSSSTAAPDSGYFKGSSSSLYGQEHYTESETGNSRNNENNNNNKQRGSSRRSGPLDYSSSHKGGSGSNSTGPSPLPRFAVSRSGPISYKQHN |
| binds | binds | ARC5 (protein, UniProt Q84N64 1-777) MAEVSAKSVTVEEMAEEDDAAIEERWSLYEAYNELHALAQELETPFEAPAVLVVGQQTDGKSALVEALMGFQFNHVGGGTKTRRPITLHMKYDPQCQFPLCHLGSDDDPSVSLPKSLSQIQAYIEAENMRLEQEPCSPFSAKEIIVKVQYKYCPNLTIIDTPGLIAPAPGLKNRALQVQARAVEALVRAKMQHKEFIILCLEDSSDWSIATTRRIVMQVDPELSRTIVVSTKLDTKIPQFSCSSDVEVFLSPPASALDSSLLGDSPFFTSVPSGRVGYGQDSVYKSNDEFKQAVSLREMEDIASLEKKLGRLLTKQEKSRIGISKLRLFLEELLWKRYKESVPLIIPLLGKEYRSTVRKLDTVSKELSSLDEAKLKERGRTFHDLFLTKLSLLLKGTVVAPPDKFGETLQDERTQGGAFVGTDGLQFSHKLIPNAGMRLYGGAQYHRAMAEFRFLVGAIKCPPITREEIVNACGVEDIHDGTNYSRTACVIAVAKARETFEPFLHQLGARLLHILKRLLPISVYLLQKEGEYLSGHEVFLKRVASAFNSFVESTEKSCRDKCMEDLASTTRYVTWSLHNKNRAGLRQFLDSFGGTEHNTTSGNAIGFSLPQDALGGTTDTKSRSDVKLSHLASNIDSGSSIQTTEMRLADLLDSTLWNRKLAPSSERIVYALVQQIFQGIREYFLASAELKFNCFLLMPIVDKLPALLREELENAFEDDLDSIFDITNLRQSLDQKKRSTEIELRRIKRIKEKFRVMNEKLNSHEFAQNLKAPSVQH |
| no binding | no binding | PIN7 (protein, UniProt Q940Y5 1-619) MITWHDLYTVLTAVIPLYVAMILAYGSVRWWKIFSPDQCSGINRFVAIFAVPLLSFHFISSNNPYAMNLRFIAADTLQKLIMLTLLIIWANFTRSGSLEWSITIFSLSTLPNTLVMGIPLLIAMYGEYSGSLMVQIVVLQCIIWYTLLLFLFEYRGAKILIMEQFPETGASIVSFKVESDVVSLDGHDFLETDAQIGDDGKLHVTVRKSNASRRSFYGGGGTNMTPRPSNLTGAEIYSLNTTPRGSNFNHSDFYSMMGFPGGRLSNFGPADMYSVQSSRGPTPRPSNFEESCAMASSPRFGYYPGGAPGSYPAPNPEFSTGNKTGSKAPKENHHHVGKSNSNDAKELHMFVWGSNGSPVSDRAGLQVDNGANEQVGKSDQGGAKEIRMLISDHTQNGENKAGPMNGDYGGEEESERVKEVPNGLHKLRCNSTAELNPKEAIETGETVPVKHMPPASVMTRLILIMVWRKLIRNPNTYSSLIGLIWALVAFRWDVAMPKIIQQSISILSDAGLGMAMFSLGLFMALQPKLIACGNSTATFAMAVRFFTGPAVMAVAAMAIGLRGDLLRVAIVQAALPQGIVPFVFAKEYNVHPAILSTGVIFGMLIALPITLVYYILLGL |
| binds | binds | RSW9 (protein, UniProt P42697 1-610) MENLISLVNKIQRACTALGDHGDSSALPTLWDSLPAIAVVGGQSSGKSSVLESIVGKDFLPRGSGIVTRRPLVLQLQKIDDGTREYAEFLHLPRKKFTDFAAVRKEIQDETDRETGRSKAISSVPIHLSIYSPNVVNLTLIDLPGLTKVAVDGQSDSIVKDIENMVRSYIEKPNCIILAISPANQDLATSDAIKISREVDPSGDRTFGVLTKIDLMDKGTDAVEILEGRSFKLKYPWVGVVNRSQADINKNVDMIAARKREREYFSNTTEYRHLANKMGSEHLAKMLSKHLERVIKSRIPGIQSLINKTVLELETELSRLGKPIAADAGGKLYSIMEICRLFDQIFKEHLDGVRAGGEKVYNVFDNQLPAALKRLQFDKQLAMDNIRKLVTEADGYQPHLIAPEQGYRRLIESSIVSIRGPAEASVDTVHAILKDLVHKSVNETVELKQYPALRVEVTNAAIESLDKMREGSKKATLQLVDMECSYLTVDFFRKLPQDVEKGGNPTHSIFDRYNDSYLRRIGSNVLSYVNMVCAGLRNSIPKSIVYCQVREAKRSLLDHFFAELGTMDMKRLSSLLNEDPAIMERRSAISKRLELYRAAQSEIDAVAWSK |
| binds | binds | DRP2B (protein, UniProt Q9LQ55 1-920) MEAIDELSQLSDSMRQAASLLADEDPDETSSSRRPATSLNVVALGNVGAGKSAVLNSLIGHPVLPTGENGATRAPIIIDLSREESLSSKAIILQIDNKNQQVSASALRHSLQDRLSKGASGRGRDEIYLKLRTSTAPPLKLIDLPGLDQRIVDDSMIGEHAQHNDAILLVVVPASQASEISSSRALKIAKEYDPESTRTVGIISKIDQAAENPKSLAAVQALLSNQGPPKTTDIPWVALIGQSVSIASAQSGGSENSLETAWRAESESLKSILTGAPQSKLGRIALVDTLASQIRSRMKLRLPNILTGLQGKSQIVQDELARLGEQLVSSAEGTRAIALELCREFEDKFLLHLAGGEGSGWKVVASFEGNFPNRIKKLPLDRHFDLNNVKRIVLEADGYQPYLISPEKGLRSLIKTVLELAKDPARLCVDEVHRVLVDIVSASANATPGLGRYPPFKREVVAIASAALDGFKNEAKKMVVALVDMERAFVPPQHFIRLVQRRMERQRREEELKGRSSKKGQDAEQSLLNRATSPQPDGPSSTGGSLKSLRDKLMPQDKDKDKEKETPEVSGLKTAGPEGEITAGYLMKKSAKTNGWSRRWFVLNEKTGKLGYTKKQEERNFRGTVTLEECSIEEISDDEGEKSKSSKDKKSNGPDSKGPGLVFKITCRVPYKTVLKAHNALVLKAESMVDKNEWINKLQKVIQARGGQVGSASMRQSLSEGSLDKMVRKPVDPEEELRWMSQEVRGYVEAVLNSLAANVPKAVVLCQVEKSKEDMLNQLYSSISAIGNERIESLIQEDQNVKRRRDRYQKQSSLLSKLTRQLSIHDNRAAAASSWSDNSGTESSPRTNGGSSGEDWMNAFNAAASGPDSLKRYGSGGHSRRYSDPAQNGEDSSGSGGSSRRTTPNRLPPAPPQSGSSYRY |
| no binding | no binding | RNA-BINDING PROTEIN 47B (protein, UniProt Q0WW84 1-435) MQTTNGSDSTLATSGATPPNQQTPPPPQQWQQQQQQQQQWMAAMQYPPAAAMMMMQQQQMLMYPHQYVPYNQGPYQQHHPQLHQYGSYQQHQHQQHKAIDRGSGDDVKTLWVGDLLHWMDETYLHSCFSHTGEVSSVKVIRNKLTSQSEGYGFVEFLSRAAAEEVLQNYSGSVMPNSDQPFRINWASFSTGEKRAVENGPDLSVFVGDLSPDVTDVLLHETFSDRYPSVKSAKVVIDSNTGRSKGYGFVRFGDENERSRALTEMNGAYCSNRQMRVGIATPKRAIANQQQHSSQAVILAGGHGSNGSMGYGSQSDGESTNATIFVGGIDPDVIDEDLRQPFSQFGEVVSVKIPVGKGCGFVQFADRKSAEDAIESLNGTVIGKNTVRLSWGRSPNKQWRGDSGQQWNGGYSRGHGYNNGGGYANHHDSNNYHGEN |
